Results on 24 targets are retold here after the supplement of paper PMC12595434, “Development of retinoid nuclear receptor pathway antagonists through targeting aldehyde dehydrogenase 1A3” (iScience, 2025).

Amino acid sequences for entries named in this document (tags omitted). A change or cut given only in a name is not applied to a line headed by its entry.
UniProt Q9BWE0: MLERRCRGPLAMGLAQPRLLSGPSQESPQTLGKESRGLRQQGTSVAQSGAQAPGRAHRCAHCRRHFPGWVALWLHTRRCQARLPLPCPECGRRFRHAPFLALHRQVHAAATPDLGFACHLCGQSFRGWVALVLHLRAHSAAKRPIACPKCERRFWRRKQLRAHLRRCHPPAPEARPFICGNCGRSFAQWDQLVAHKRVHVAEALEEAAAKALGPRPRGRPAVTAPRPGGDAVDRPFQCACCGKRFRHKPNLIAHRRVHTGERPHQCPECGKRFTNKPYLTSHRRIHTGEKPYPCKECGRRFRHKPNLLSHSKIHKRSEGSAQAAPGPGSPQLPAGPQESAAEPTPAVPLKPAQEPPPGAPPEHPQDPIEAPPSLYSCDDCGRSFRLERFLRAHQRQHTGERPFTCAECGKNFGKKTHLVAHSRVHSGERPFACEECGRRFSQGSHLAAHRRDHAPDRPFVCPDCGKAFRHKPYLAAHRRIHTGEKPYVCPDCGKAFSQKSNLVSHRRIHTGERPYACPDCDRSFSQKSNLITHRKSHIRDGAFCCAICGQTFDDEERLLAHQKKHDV
UniProt Q9BV44: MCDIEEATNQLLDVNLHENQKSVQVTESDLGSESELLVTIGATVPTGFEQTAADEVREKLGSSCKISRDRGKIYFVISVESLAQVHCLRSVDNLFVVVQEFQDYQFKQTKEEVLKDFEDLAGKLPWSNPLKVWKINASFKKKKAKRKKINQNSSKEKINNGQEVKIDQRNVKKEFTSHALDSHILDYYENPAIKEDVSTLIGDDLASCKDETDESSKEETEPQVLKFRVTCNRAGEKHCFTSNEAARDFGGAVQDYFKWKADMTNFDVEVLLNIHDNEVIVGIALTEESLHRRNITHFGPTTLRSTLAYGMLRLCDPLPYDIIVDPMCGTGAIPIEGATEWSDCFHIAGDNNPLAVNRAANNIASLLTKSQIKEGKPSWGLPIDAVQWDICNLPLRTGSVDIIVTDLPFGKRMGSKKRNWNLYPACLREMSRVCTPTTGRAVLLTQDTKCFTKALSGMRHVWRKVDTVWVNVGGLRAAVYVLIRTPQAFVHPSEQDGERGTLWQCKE
UniProt Q9BQ04: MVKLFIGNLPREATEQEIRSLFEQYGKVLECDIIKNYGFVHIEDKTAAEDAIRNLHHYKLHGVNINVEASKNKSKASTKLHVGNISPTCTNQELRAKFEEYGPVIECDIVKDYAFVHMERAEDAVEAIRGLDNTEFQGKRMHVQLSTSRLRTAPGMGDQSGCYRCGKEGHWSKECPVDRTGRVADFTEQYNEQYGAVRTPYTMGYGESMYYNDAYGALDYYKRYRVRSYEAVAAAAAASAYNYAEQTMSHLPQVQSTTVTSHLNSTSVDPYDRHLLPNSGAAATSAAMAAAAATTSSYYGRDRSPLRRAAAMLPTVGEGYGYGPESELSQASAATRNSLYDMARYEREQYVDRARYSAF
UniProt Q9BXS9: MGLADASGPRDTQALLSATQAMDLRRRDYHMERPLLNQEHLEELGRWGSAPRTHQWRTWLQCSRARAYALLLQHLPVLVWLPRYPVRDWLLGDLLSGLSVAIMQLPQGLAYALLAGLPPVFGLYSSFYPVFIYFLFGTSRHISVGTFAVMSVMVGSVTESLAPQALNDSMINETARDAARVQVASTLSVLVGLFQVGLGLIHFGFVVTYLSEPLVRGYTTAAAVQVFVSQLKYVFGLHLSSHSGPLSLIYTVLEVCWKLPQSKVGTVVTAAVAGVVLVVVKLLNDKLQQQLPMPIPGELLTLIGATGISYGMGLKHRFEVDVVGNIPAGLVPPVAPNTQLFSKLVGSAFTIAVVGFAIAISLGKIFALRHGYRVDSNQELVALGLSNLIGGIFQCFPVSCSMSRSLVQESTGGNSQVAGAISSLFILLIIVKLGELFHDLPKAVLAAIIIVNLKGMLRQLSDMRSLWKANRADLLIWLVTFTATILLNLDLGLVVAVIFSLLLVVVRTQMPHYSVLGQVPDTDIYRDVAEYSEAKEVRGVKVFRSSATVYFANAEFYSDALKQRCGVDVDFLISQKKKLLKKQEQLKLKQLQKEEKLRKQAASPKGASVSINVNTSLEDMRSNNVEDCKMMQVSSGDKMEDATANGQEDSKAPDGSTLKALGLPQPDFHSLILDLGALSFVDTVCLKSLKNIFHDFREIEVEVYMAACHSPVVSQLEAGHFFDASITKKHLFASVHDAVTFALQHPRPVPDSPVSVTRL
UniProt Q9BUH6, whole entry: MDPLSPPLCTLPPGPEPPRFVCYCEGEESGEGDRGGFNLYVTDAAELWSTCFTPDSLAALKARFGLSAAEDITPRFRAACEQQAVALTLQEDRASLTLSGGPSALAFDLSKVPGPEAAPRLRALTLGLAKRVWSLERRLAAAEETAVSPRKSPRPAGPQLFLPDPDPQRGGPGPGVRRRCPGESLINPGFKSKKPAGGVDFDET
UniProt Q9BU02: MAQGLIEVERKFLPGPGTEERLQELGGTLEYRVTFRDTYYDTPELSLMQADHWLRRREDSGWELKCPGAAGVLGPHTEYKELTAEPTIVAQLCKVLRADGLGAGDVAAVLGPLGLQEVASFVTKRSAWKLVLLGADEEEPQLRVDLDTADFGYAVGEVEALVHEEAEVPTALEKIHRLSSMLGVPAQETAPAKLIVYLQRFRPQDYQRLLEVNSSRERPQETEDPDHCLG
UniProt Q9BVV7: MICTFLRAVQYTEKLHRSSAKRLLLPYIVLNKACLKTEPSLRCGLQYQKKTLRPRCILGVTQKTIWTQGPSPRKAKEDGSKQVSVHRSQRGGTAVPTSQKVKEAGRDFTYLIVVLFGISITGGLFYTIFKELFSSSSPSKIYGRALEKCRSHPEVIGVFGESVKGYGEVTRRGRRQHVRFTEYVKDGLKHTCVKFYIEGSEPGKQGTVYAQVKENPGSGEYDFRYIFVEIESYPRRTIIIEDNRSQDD
UniProt Q9BXK5, whole entry: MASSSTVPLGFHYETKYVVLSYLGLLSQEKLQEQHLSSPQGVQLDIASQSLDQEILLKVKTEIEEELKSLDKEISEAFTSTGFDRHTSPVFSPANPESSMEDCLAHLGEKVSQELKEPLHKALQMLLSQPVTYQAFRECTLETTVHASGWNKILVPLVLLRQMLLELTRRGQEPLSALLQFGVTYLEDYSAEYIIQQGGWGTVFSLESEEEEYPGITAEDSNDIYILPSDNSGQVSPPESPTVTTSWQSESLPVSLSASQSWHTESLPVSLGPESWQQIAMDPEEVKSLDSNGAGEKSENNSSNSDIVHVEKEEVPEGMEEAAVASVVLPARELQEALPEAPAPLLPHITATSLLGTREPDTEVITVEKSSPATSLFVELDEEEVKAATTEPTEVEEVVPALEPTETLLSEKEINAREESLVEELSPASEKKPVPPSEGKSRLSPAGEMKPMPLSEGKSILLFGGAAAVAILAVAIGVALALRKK
UniProt Q9BRS8: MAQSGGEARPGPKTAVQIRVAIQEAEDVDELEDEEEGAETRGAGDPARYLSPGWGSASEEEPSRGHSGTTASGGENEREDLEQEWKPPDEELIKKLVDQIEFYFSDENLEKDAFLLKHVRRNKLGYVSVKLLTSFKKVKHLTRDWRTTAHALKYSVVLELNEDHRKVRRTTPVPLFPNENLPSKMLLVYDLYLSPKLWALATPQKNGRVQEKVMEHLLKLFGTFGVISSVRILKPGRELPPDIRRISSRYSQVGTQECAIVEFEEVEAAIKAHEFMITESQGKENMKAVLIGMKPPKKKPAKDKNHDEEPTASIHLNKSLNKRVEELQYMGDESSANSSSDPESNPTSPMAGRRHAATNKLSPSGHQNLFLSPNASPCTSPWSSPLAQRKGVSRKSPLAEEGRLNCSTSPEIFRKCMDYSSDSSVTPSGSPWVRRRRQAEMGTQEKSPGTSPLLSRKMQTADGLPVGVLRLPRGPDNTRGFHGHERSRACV
UniProt Q9BTY2: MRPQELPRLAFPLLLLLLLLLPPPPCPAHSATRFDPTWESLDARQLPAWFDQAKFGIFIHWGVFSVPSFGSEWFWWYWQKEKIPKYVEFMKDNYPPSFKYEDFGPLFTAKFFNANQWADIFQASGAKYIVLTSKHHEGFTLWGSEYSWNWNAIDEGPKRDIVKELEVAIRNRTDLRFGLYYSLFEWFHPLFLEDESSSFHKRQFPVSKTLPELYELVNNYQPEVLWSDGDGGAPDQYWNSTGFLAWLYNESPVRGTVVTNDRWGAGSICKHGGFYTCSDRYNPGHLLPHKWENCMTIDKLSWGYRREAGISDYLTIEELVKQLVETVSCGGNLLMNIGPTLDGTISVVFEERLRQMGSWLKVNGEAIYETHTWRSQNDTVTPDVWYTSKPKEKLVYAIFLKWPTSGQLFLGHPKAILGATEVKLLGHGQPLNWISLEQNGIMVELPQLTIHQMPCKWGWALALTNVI
UniProt Q9BX10: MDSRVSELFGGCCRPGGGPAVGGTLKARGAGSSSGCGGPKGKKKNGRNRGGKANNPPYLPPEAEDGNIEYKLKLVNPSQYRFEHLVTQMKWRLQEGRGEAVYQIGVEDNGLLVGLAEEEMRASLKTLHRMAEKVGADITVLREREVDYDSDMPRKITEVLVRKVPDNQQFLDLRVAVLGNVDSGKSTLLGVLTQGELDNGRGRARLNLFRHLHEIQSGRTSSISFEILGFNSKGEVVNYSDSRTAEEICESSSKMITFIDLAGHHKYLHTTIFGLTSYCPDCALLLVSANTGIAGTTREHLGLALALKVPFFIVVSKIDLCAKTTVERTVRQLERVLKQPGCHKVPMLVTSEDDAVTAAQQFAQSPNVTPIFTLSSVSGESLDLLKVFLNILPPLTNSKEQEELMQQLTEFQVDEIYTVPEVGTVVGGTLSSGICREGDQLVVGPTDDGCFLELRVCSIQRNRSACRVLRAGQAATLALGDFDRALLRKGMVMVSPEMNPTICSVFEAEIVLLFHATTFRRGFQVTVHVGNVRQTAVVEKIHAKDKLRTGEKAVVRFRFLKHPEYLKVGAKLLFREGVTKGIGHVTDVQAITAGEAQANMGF
UniProt Q9BV19: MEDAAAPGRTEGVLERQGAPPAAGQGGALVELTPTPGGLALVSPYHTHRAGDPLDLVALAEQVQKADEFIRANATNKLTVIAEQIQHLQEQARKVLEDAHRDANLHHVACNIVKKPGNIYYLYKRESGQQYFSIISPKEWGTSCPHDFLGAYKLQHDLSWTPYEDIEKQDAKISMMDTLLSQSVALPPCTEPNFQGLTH
UniProt Q9BWH6: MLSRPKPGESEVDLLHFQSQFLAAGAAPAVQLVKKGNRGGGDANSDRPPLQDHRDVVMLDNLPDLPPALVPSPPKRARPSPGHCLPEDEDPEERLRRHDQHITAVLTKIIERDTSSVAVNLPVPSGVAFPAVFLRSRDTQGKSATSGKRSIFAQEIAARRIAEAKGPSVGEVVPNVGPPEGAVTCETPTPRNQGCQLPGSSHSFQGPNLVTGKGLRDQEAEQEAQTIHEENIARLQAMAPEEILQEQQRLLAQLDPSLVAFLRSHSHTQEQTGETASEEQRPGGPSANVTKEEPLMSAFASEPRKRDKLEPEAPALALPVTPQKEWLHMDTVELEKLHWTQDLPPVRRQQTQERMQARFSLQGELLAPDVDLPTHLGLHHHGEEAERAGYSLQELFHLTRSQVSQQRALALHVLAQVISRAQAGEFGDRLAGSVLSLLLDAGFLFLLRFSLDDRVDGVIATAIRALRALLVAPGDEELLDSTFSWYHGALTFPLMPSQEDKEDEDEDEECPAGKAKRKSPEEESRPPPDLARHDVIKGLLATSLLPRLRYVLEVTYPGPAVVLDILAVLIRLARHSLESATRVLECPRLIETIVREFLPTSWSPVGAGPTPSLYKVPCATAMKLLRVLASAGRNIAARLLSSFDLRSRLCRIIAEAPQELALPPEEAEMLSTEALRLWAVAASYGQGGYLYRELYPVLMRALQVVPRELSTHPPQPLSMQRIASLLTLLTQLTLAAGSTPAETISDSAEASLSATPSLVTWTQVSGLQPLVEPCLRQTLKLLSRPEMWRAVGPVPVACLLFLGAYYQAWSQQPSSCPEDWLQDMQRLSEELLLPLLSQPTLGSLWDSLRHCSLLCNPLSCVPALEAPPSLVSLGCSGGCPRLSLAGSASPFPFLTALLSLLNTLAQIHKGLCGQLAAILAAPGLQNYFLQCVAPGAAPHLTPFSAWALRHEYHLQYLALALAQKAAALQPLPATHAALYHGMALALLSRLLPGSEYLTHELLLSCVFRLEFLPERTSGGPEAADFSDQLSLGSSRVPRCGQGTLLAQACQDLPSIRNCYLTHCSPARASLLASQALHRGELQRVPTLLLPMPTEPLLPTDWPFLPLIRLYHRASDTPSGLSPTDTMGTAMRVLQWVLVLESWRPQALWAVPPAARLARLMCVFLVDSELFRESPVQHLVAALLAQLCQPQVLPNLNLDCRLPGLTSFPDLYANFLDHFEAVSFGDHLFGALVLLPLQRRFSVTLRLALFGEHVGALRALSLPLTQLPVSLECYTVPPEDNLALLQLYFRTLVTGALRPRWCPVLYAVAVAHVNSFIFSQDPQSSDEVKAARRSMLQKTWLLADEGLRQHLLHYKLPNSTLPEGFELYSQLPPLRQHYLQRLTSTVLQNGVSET

Compound in the assay: CCc1cnccc1C(=O)Nc1cc2c(cc1F)NC(=O)CC2
Nature of the assay: melting temperature shift (DMSO Tm minus MBE1-treated Tm) in cellular thermal proteome profiling; higher = less thermal stabilization by MBE1 (negative = stabilized by MBE1). The settings on record: A375.

The other results are listed elsewhere or left out. This is a noisy data set.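 Many melting curves are irregular; where none melted, Tm was taken as 64 °C.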

For MAPKAP1 (UniProt Q9BPZ7), the melting temperature shift reads like this: (MBE1 concentration: 100 nM) 0.273 °C; (MBE1 concentration: 1 uM) 0.0518 °C.

REPIN1 (UniProt Q9BWE0): the melting temperature shift is -0.695 °C (MBE1 concentration: 100 nM) and 0.147 °C (MBE1 concentration: 1 uM).

On to DDX23 (UniProt Q9BUQ8), for which the melting temperature shift was -1.14 °C (MBE1 concentration: 100 nM) and -1.68 °C (MBE1 concentration: 1 uM).

In the case of GNL3 (UniProt Q9BVP2), the melting temperature shift by setting is: (MBE1 concentration: 100 nM) -0.0641 °C; (MBE1 concentration: 1 uM) -0.122 °C.

Consider CMSS1 (UniProt Q9BQ75), for which the melting temperature shift reads like this: (MBE1 concentration: 100 nM) 0.134 °C; (MBE1 concentration: 1 uM) 0.318 °C.

As to THUMPD3 (UniProt Q9BV44), the melting temperature shift reads like this: (MBE1 concentration: 100 nM) -0.812 °C; (MBE1 concentration: 1 uM) -0.241 °C.

Regarding UniProt Q9BQ04, the melting temperature shift is -0.502 °C (MBE1 concentration: 100 nM) and -0.365 °C (MBE1 concentration: 1 uM).

TXNDC17 (UniProt Q9BRA2): the melting temperature shift reads like this: (MBE1 concentration: 100 nM) -0.603 °C; (MBE1 concentration: 1 uM) 0.101 °C.

For SLC26A6 (UniProt Q9BXS9), the melting temperature shift runs as follows: (MBE1 concentration: 100 nM) -3.1 °C; (MBE1 concentration: 1 uM) -0.302 °C.

With SCAF11 (UniProt Q99590), the melting temperature shift was -7.21 °C (MBE1 concentration: 100 nM) and 0.134 °C (MBE1 concentration: 1 uM).

For C9ORF142 (UniProt Q9BUH6), the melting temperature shift is, setting by setting: (MBE1 concentration: 100 nM) -2.3 °C; (MBE1 concentration: 1 uM) -1.87 °C.

Regarding THTPA (UniProt Q9BU02), the melting temperature shift was -0.244 °C (MBE1 concentration: 100 nM) and 0.604 °C (MBE1 concentration: 1 uM).

Take MICU1 (UniProt Q9BPX6): the melting temperature shift is, setting by setting: (MBE1 concentration: 100 nM) -0.847 °C; (MBE1 concentration: 1 uM) 0.983 °C.

For the target RBM4 (UniProt Q9BWF3), the melting temperature shift by setting is: (MBE1 concentration: 100 nM) -0.16 °C; (MBE1 concentration: 1 uM) -1.47 °C.

On to TIMM21 (UniProt Q9BVV7), for which the melting temperature shift is -0.107 °C (MBE1 concentration: 100 nM) and 9.79 °C (MBE1 concentration: 1 uM).

In the case of BCL2L13 (UniProt Q9BXK5), the melting temperature shift (MBE1 concentration: 100 nM) is -0.51 °C and the melting temperature shift (MBE1 concentration: 1 uM) is -0.221 °C.

For UniProt Q9BRS8, the melting temperature shift runs as follows: (MBE1 concentration: 100 nM) -0.922 °C; (MBE1 concentration: 1 uM) 0.965 °C.

On to LGMN (UniProt Q99538), for which the melting temperature shift runs as follows: (MBE1 concentration: 100 nM) -0.932 °C; (MBE1 concentration: 1 uM) 0.771 °C.

Consider FUCA2 (UniProt Q9BTY2), for which the melting temperature shift is -1.82 °C (MBE1 concentration: 100 nM) and -2.98 °C (MBE1 concentration: 1 uM).

With GTPBP2 (UniProt Q9BX10), the melting temperature shift is, setting by setting: (MBE1 concentration: 100 nM) -2.1 °C; (MBE1 concentration: 1 uM) -0.427 °C.

For UniProt Q9BV19, the melting temperature shift runs as follows: (MBE1 concentration: 100 nM) -4.95 °C; (MBE1 concentration: 1 uM) 0.202 °C.

As for CCDC94 (UniProt Q9BW85), the melting temperature shift reads like this: (MBE1 concentration: 100 nM) -0.49 °C; (MBE1 concentration: 1 uM) -0.0122 °C.

Regarding SRRT (UniProt Q9BXP5), the melting temperature shift is -0.489 °C (MBE1 concentration: 100 nM) and -0.249 °C (MBE1 concentration: 1 uM).

Take RPAP1 (UniProt Q9BWH6): the melting temperature shift by setting is: (MBE1 concentration: 100 nM) 1.42 °C; (MBE1 concentration: 1 uM) 0.647 °C.
